Reference: the supplement of paper PMC3334620
In all, about 33,000 sequences were measured (“E-score (-0.5 to 0.5)”: median about -0.0034, highest 2% from about 0.25 on). The list shows a part of the results.

Each sequence was assayed against T1, Yap3 (UniProt P38749) (assay: PBM E-score (8-mer binding enrichment) (E-score (-0.5 to 0.5)); higher = stronger / more preferred TF binding). Conditions: protein concentration: 100 nM; construct: GST-full length.
T1 sequence: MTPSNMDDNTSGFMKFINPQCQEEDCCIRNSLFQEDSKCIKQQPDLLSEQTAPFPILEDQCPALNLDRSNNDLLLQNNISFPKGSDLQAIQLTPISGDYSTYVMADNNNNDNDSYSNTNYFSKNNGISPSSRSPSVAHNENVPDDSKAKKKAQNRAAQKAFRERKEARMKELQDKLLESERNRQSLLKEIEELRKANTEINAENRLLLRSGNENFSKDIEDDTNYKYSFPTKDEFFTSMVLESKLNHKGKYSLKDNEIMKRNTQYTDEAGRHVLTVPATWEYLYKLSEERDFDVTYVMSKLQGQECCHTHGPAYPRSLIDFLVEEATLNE
In short: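 Universal all-10-mer Agilent arrays, fresh or stripped once, were converted to double-stranded form by primer extension. GST-tagged yeast transcription factors from PURExpress in vitro transcription/translation, full-length or DNA-binding domain only, were applied at about 100-200 nM and detected with fluorescent anti-GST. After masliner normalisation, the Universal PBM Analysis Suite scored each ungapped eight-base word together with its reverse complement by E-score.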

| Sequence | PBM E-score |
| --- | --- |
| TAGCTTGA | -0.174 |
| ATAATTGA | 0.308 |
| GACGAAGA | 0.0634 |
| TCCTCGAA | 0.014 |
| GAAAATTC | 0.0254 |
| ACTTGTAG | -0.0348 |
| GACTTAGC | -0.136 |
| ACAGTGCC | -0.0154 |
| ACCTCGGC | -0.00107 |
| CACAATCA | 0.133 |
| GGATACAC | -0.0394 |
| ATCTTGCC | 0.036 |
| AGACGCAT | -0.0155 |
| CCATAAAG | -0.0846 |
| ATCCGCAC | 0.0909 |
| CAGGGGAA | -0.141 |
| CGTTCGCC | -0.103 |
| TCCCCGGA | -0.0742 |
| GAACCGCC | -0.0697 |
| CTAGTTTC | 0.0462 |
| CGTAAGGC | -0.0147 |
| ATCTAAAA | 0.144 |
| CTGATAAC | 0.147 |
| ACCCGAAT | 0.0835 |

| Sequence | PBM E-score |
| --- | --- |
| AATTTTTC | 0.0818 |
| CGCACTCC | -0.218 |
| TAATACTA | 0.367 |
| ACTGACTG | -0.144 |
| CCTAATGC | -0.155 |
| ACGGAGCC | -0.149 |
| AGGCGTAC | -0.186 |
| AACGGACA | 0.0626 |
| AGGCACGG | -0.0528 |
| CACACCTG | -0.129 |
| ATAATGAG | 0.147 |
| GCCTACCA | -0.125 |
| CTCAGTTC | -0.148 |
| GCCGTCTA | -0.0237 |
| CATGTTGA | 0.255 |
| AAGACGTG | -0.0391 |
| GCATAGTA | 0.137 |
| AGATTGAT | -0.0192 |
| ATCCCTTA | -0.0465 |
| TCTTCAAA | 0.0414 |
| CCATGCTA | -0.215 |
| ATCTGTCG | 0.0616 |
| GGCGTGCA | -0.177 |
| GCTAACAA | 0.0597 |

| Sequence | PBM E-score |
| --- | --- |
| AAGTCTTA | -0.00416 |
| GTAACAAC | 0.0328 |
| AACCAGTA | 0.0562 |
| ACCATAGA | -0.0556 |
| CGTCGATC | 0.0519 |
| CTCATCGC | -0.0158 |
| GTGCATGA | 0.0161 |
| CTAACAAA | 0.111 |
| TACACACA | 0.0897 |
| AAACTGAT | 0.0541 |
| GTGTGATA | 0.203 |
| AGGTTTAT | 0.182 |
| TACCCTAA | 0.0145 |
| GTGCAACA | -0.131 |
| AGTAGAAA | 0.131 |
| CGATGTTA | 0.2 |
| CCTGTGCG | 0.00483 |
| CAACTTAA | 0.0567 |
| CGGGGAAA | 0.162 |
| TGCCATAA | 0.158 |
| GAAGTAAC | 0.0537 |
| CACTTACC | 0.229 |
| GACGTTAC | 0.00232 |
| GTCTGGAA | -0.00013 |

Quoted from the results shown for reference:

| Sequence | PBM E-score |
| --- | --- |
| CGTAAGGC | -0.0147 |
| ATCTAAAA | 0.144 |
| CTGATAAC | 0.147 |
| ACCCGAAT | 0.0835 |
| AATTTTTC | 0.0818 |
| CGCACTCC | -0.218 |
| TAATACTA | 0.367 |
| ACTGACTG | -0.144 |
| CCTAATGC | -0.155 |
| ACGGAGCC | -0.149 |
| AGGCGTAC | -0.186 |
| AACGGACA | 0.0626 |
| AGGCACGG | -0.0528 |
| CACACCTG | -0.129 |
| ATAATGAG | 0.147 |
| GCCTACCA | -0.125 |
| CTCAGTTC | -0.148 |
| GCCGTCTA | -0.0237 |
| CATGTTGA | 0.255 |
| AAGACGTG | -0.0391 |
| GCATAGTA | 0.137 |
| AGATTGAT | -0.0192 |
| ATCCCTTA | -0.0465 |
| TCTTCAAA | 0.0414 |
| CCATGCTA | -0.215 |
| ATCTGTCG | 0.0616 |
| GGCGTGCA | -0.177 |
| GCTAACAA | 0.0597 |

Following part.

| Sequence | PBM E-score |
| --- | --- |
| AAGGAGCG | 0.00726 |
| GCGACATA | 0.0664 |
| AGGGTACC | -0.263 |
| ATGATCGA | 0.0147 |
| ACGGATCC | -0.0602 |
| CAATGTGC | 0.0307 |
| GATATGCA | 0.0313 |
| GATATCCC | -0.0282 |
| AATTCACC | 0.0636 |
| AAGATGGC | -0.0122 |
| GGAGGGTA | -0.0456 |
| CCCTACAA | 0.0436 |
| TGGCCAAA | 0.126 |
| ACCACCTC | -0.038 |
| AAGGTCCG | -0.286 |
| GATCGTAC | -0.105 |
| CAGTTTCC | -0.00032 |
| GATTCGCC | -0.071 |
| CGCCAGTA | -0.199 |
| AACATTTG | -0.164 |
| CTAGCTTC | -0.216 |
| ACATCTCT | 0.068 |
